# Measurements reported in PubChem BioAssay AID652259 (Drosophila RNAi Screening Center, 2013)
# Screen: 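Knock-downs that push a Wingless-driven reporter up or down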 (primary screen)
# System: Drosophila clone 8 imaginal disc epithelial cells
# Reagents: long dsRNA against Drosophila genes
# Conditions: pathway stimulated by co-transfected Wingless expression plasmid
# Read-out: 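Firefly luciferase from a tcf-site Wingless reporter, measured alongside co-transfected Renilla luciferase that tracks transfection; pathway stimulated by a Wingless plasmid; the firefly-to-Renilla ratio is not deposited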
# Direction: firefly reporter light: higher = more Wg reporter light, before normalisation; Renilla control light: higher = more transfected or surviving cells
# Rule for the call: 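a knock-down is a candidate when at least two out of four statistical tests show it departing from its plate mean; one test alone signals a weak candidate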
# Meaning of the calls: active = candidate regulator (raises or lowers reporter); inactive = not a candidate
# The screen tested about 22,000 reagents; below is a random part of those with a known target gene and a result. In the full data, 233 (1.1%) got an active call. 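Light values are raw, unnormalised plate reads; the ratio scores behind the reporter calls were not deposited.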 Names joined by + are all predicted targets of the reagent. Not given: the amount of reagent, the time to read-out, the dose of the treatment.
target,DRSC id,"reporter change call, replicate 1","firefly reporter light, replicate 1","firefly reporter light, replicate 2","Renilla control light, replicate 1","Renilla control light, replicate 2",outcome
NimC1,DRSC01879,,1484,6297,1082,2658,inactive
yellow-f,DRSC15348,,13292,,2512,,inactive
AOX1,DRSC15339,,6634,,2081,,inactive
Atg4b,DRSC15988,,10069,,3029,,inactive
CG14566,DRSC11727,,19904,,7426,,inactive
CG9521,DRSC20196,,21392,,8484,,inactive
in,DRSC11888,,11596,,4866,,inactive
Septin5,DRSC06843,,10035,,2777,,inactive
Rm62,DRSC12365,Wg reporter activity raised,11744,,1408,,active
Nup62,DRSC06970,,24486,,4137,,inactive
CG9294,DRSC04537,,1769,5351,864,1977,inactive
CG6094,DRSC02927,,14628,7.54e5,4423,3.56e5,inactive
CG6094,DRSC22705,,5.50e5,6.10e5,2.18e5,1.50e5,inactive
PDZ-GEF,DRSC03231,,1734,7090,352,3346,inactive
CG14929,DRSC02411,,2721,9220,640,4273,inactive
sphinx1,DRSC10993,,2192,4562,1584,2372,inactive
CG17267,DRSC15207,,14080,,3560,,inactive
Opbp,DRSC04966,,2224,7223,760,2148,inactive
CG7714,DRSC16300,,14556,,3747,,inactive
mof,DRSC18795,,17168,,3474,,inactive
CG15643,DRSC19679,,10434,,5569,,inactive
CG33346,DRSC22898,,5.53e5,4.82e5,2.22e5,95750,inactive
nuf,DRSC11379,,6761,,2450,,inactive
nuf,DRSC22524,,6.19e5,6.18e5,2.13e5,1.87e5,inactive
PQBP1,DRSC14393,,2717,4653,1168,1676,inactive
Wnt4,DRSC00976,,3430,,4118,,inactive
Wnt4,DRSC03477,,1389,6677,597,2518,inactive
CG5800,DRSC19962,,18109,,9275,,inactive
ABCB7,DRSC08603,,4497,,2485,,inactive
CG10602,DRSC02075,,8032,,2114,,inactive

10 successive records already listed:
target,DRSC id,"reporter change call, replicate 1","firefly reporter light, replicate 1","firefly reporter light, replicate 2","Renilla control light, replicate 1","Renilla control light, replicate 2",outcome
CG9294,DRSC04537,,1769,5351,864,1977,inactive
CG6094,DRSC02927,,14628,7.54e5,4423,3.56e5,inactive
CG6094,DRSC22705,,5.50e5,6.10e5,2.18e5,1.50e5,inactive
PDZ-GEF,DRSC03231,,1734,7090,352,3346,inactive
CG14929,DRSC02411,,2721,9220,640,4273,inactive
sphinx1,DRSC10993,,2192,4562,1584,2372,inactive
CG17267,DRSC15207,,14080,,3560,,inactive
Opbp,DRSC04966,,2224,7223,760,2148,inactive
CG7714,DRSC16300,,14556,,3747,,inactive
mof,DRSC18795,,17168,,3474,,inactive

Further entries:
target,DRSC id,"reporter change call, replicate 1","firefly reporter light, replicate 1","firefly reporter light, replicate 2","Renilla control light, replicate 1","Renilla control light, replicate 2",outcome
CG17145,DRSC10247,,16537,,2950,,inactive
Obp8a,DRSC17868,,19328,,6378,,inactive
ND-ASHI,DRSC18291,,17264,,9732,,inactive
Fim,DRSC20243,,3963,4624,1283,2717,inactive
CG5172,DRSC19936,,31236,,10960,,inactive
Jheh2,DRSC06530,,7270,,2265,,inactive
CG11638,DRSC18167,,19596,,11920,,inactive
CG11638,DRSC18640,,20236,,14368,,inactive
CG11170,DRSC04090,,9147,,2659,,inactive
RhoGDI,DRSC10919,,8992,,3313,,inactive
CG2493,DRSC02707,,10486,,3290,,inactive
CG11828,DRSC14394,,11585,,6560,,inactive
CG11828,DRSC22580,,8.28e5,8.01e5,3.21e5,2.75e5,inactive
otk2,DRSC07303,,5241,,2265,,inactive
Past1,DRSC16784,,16251,,3916,,inactive
Obp99d,DRSC15046,,4758,,2224,,inactive
CG4629,DRSC00659,,3941,10293,1571,3645,inactive
Tom70,DRSC02990,Wg reporter activity lowered,1050,4845,842,1936,inactive
CG7276,DRSC10797,,6321,,2736,,inactive
scramb2,DRSC08543,,8416,,2512,,inactive
Ogdh,DRSC09854,,9000,,4326,,inactive
Ogdh,DRSC09855,,9045,,3336,,inactive
DIP-theta,DRSC00885,,21750,,9074,,inactive
DIP-theta,DRSC02340,,2432,4849,757,785,inactive
DIP-theta,DRSC02341,,4240,7715,720,909,inactive
Lip1,DRSC03364,,2283,6355,1064,3184,inactive
rig,DRSC06053,,11136,,3336,,inactive
rig,DRSC06400,,5192,,2221,,inactive
CG9410 + CG15908,DRSC04976,,2340,7003,656,1674,inactive
CG9410 + CG15908,DRSC05001,,3137,9738,852,3269,inactive
CG5194,DRSC10492,,7098,,2640,,inactive
CG8483,DRSC16430,,4656,,1606,,inactive
CG8490,DRSC07194,,11121,,1693,,inactive
CG34178 + CG34177,DRSC00351,,2200,5108,666,2109,inactive
CG14380,DRSC14840,,15120,,1904,,inactive
Prp16,DRSC19538,,3698,3778,832,1320,inactive
Prp16,DRSC19542,,13286,,5353,,inactive
CG18540,DRSC06767,,8905,,1796,,inactive
Edg78E,DRSC11863,,16979,,5936,,inactive
CG42306 + Gint3,DRSC06934,,13555,,5085,,inactive
mtDNA-helicase,DRSC02912,,1590,5594,577,2245,inactive
Asap,DRSC06493,,3176,8727,618,3149,inactive
Asap,DRSC06830,,6352,,1498,,inactive
